Results are given in words; binding and its absence hold for the method and conditions named. Tags and fused reporters may be left off the sequences shown.
Biological target: T1, DnaB (BACTH fusions) (Myxococcus xanthus) (UniProt Q1D285)
T1 sequence: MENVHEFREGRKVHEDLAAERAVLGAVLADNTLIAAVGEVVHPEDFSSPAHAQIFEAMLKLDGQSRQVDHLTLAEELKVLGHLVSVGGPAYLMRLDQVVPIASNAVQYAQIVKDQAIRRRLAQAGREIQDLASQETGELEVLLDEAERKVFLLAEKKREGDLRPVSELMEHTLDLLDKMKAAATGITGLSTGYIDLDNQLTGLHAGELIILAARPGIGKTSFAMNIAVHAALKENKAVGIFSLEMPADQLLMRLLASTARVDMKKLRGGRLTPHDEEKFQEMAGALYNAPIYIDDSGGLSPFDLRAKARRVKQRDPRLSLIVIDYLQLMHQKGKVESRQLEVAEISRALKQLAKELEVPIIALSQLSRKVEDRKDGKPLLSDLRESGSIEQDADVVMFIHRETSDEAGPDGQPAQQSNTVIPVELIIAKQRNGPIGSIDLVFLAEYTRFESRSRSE
Assay: two-hybrid; BACTH (bacterial adenylate cyclase-based two-hybrid); proteins fused to T25 and T18; blue colonies: interaction, white: none; two biological replicates

binding: no binding
Substance: CdbS (BACTH fusions) (Myxococcus xanthus)
